Assay results as given in the supplement of paper PMC10849652.
Some of the results follow.

The chains behind the UniProt entries cited, without tags or fusion partners. Where a name states a change or a piece, a line headed by the entry shows the natural chain unless it says otherwise.
UniProt Q9GZU7: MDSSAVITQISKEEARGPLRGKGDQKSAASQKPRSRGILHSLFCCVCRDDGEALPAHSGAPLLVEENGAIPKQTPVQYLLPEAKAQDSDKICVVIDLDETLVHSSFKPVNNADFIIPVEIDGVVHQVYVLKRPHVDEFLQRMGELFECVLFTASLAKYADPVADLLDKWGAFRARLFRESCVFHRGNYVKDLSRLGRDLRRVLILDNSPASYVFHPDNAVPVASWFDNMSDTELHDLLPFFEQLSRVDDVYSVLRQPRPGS
UniProt Q96DE9: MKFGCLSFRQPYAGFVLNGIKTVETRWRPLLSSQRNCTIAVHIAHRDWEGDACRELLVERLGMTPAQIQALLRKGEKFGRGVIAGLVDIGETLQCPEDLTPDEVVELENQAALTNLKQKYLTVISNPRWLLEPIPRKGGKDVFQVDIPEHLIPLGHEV
UniProt O60931: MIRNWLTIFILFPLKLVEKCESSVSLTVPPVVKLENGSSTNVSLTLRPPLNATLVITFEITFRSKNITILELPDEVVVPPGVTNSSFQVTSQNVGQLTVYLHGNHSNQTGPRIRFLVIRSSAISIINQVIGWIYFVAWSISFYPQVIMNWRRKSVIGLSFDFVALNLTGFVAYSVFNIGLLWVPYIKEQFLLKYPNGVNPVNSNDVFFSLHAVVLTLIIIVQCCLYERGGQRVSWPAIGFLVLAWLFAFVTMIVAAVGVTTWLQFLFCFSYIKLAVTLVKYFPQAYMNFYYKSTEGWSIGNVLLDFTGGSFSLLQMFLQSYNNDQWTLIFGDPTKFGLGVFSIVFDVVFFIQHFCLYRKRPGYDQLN
UniProt Q9UIK4: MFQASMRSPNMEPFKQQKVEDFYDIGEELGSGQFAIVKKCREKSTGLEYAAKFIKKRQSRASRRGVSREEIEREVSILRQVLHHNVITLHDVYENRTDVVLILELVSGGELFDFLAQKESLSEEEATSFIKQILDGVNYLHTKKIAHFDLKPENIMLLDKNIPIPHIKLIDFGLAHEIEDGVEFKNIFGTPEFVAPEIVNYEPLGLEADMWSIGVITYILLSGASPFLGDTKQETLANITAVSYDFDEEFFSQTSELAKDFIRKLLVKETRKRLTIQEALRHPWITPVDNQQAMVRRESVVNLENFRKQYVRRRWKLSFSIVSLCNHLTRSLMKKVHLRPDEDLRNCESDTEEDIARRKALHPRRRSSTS
UniProt P61803: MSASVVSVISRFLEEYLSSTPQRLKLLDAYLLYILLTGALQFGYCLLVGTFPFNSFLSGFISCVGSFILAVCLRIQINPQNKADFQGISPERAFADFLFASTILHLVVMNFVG
UniProt O95715: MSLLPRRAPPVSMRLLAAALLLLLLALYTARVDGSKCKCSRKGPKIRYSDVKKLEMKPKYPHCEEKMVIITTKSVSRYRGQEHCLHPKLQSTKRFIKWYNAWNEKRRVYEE
UniProt Q8WYA6: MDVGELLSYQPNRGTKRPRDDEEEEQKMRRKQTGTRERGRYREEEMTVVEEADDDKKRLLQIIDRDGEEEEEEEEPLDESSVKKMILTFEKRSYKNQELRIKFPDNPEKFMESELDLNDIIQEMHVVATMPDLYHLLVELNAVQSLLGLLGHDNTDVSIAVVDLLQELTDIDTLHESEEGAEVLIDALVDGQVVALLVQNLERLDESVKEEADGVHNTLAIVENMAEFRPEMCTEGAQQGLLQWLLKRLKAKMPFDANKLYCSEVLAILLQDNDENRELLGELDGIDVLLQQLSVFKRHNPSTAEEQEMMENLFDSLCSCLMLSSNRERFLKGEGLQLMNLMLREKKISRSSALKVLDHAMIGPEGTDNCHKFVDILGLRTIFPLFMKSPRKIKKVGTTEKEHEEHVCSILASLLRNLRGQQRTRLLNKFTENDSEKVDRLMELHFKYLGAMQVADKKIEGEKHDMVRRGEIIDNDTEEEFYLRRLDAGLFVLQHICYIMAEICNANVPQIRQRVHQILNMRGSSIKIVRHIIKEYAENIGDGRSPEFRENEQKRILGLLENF
UniProt Q9Y5B0: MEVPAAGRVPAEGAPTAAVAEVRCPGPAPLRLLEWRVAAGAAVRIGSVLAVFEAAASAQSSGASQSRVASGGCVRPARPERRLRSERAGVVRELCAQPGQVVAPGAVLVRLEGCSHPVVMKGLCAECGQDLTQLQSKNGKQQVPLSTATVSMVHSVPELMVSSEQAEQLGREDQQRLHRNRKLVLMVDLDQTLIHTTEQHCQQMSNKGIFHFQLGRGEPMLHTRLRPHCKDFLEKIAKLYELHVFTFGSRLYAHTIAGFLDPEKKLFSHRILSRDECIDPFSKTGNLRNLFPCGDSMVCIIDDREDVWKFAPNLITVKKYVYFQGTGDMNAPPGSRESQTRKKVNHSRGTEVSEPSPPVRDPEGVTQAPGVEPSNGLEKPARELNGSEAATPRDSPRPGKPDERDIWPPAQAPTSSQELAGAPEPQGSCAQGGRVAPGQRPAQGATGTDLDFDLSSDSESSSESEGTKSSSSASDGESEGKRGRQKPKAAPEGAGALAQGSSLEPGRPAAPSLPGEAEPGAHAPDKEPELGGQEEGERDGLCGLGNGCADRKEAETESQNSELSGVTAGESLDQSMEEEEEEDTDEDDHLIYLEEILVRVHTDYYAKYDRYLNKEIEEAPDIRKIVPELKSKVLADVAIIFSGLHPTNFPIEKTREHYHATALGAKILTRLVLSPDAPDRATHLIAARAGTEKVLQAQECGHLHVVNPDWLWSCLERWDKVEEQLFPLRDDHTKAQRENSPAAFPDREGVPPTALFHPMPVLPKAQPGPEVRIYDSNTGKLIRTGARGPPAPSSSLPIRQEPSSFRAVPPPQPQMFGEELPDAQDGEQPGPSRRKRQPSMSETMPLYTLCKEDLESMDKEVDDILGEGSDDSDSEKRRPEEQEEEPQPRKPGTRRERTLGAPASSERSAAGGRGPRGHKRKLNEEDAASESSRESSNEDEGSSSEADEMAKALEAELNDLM
UniProt P01036: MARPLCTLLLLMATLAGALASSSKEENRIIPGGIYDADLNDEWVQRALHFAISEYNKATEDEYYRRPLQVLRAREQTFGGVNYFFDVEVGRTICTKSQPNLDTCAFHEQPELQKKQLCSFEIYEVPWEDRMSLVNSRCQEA
UniProt Q8IZD4: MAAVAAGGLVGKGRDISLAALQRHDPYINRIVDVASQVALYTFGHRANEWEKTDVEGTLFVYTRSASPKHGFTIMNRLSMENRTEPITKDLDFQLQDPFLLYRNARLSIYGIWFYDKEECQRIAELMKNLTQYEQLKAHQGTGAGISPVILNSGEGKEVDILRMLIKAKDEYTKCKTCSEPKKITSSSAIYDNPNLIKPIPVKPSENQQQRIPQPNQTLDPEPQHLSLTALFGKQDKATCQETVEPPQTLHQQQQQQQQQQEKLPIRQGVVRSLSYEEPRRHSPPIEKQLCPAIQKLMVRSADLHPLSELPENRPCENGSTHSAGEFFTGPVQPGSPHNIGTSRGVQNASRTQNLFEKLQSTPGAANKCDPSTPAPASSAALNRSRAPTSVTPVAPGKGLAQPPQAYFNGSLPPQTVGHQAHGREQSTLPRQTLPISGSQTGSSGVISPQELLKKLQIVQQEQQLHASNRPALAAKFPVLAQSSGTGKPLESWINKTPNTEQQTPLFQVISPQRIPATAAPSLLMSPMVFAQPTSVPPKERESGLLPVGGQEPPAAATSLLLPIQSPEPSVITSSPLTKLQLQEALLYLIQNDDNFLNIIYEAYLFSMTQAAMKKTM
UniProt Q9BWK5: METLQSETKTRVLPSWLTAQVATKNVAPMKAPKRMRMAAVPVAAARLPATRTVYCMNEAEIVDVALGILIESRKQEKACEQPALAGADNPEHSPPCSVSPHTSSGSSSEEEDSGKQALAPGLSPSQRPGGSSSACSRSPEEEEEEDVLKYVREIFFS
UniProt Q92564: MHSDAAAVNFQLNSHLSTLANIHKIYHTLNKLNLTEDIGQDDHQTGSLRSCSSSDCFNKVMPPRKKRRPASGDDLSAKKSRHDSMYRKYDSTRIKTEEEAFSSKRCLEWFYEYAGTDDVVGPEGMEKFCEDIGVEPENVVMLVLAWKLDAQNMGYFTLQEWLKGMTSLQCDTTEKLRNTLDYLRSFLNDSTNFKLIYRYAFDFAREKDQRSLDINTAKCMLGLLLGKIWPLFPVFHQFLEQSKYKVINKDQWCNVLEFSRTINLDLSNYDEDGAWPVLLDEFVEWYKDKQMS
UniProt O95196: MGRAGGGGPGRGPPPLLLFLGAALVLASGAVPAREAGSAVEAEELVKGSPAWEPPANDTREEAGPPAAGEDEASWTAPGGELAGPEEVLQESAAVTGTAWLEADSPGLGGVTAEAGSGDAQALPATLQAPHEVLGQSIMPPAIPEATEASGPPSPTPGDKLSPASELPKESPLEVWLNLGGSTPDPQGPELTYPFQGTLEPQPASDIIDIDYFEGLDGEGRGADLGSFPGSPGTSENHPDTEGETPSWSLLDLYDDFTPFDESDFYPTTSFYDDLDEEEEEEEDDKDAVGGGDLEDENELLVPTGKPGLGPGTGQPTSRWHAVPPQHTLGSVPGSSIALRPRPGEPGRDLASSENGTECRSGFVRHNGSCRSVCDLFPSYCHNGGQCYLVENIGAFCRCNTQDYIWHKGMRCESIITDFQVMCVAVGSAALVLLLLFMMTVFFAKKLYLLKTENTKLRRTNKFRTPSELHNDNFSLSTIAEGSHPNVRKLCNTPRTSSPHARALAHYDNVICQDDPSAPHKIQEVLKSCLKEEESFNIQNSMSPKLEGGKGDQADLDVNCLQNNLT
UniProt Q05D32: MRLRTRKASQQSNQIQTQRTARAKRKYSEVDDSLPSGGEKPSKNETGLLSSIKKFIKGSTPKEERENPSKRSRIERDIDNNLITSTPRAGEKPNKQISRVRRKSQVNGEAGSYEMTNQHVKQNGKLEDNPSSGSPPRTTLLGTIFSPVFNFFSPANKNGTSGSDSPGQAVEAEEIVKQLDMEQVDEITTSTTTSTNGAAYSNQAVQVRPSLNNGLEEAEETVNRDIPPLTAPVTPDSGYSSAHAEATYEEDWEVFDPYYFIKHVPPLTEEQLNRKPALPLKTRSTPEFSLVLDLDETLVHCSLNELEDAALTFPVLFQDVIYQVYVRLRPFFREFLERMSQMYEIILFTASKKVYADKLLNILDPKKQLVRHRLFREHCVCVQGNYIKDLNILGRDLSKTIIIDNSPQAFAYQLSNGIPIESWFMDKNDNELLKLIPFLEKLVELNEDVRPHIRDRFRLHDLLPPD
UniProt Q9P0U4, whole entry, looked up: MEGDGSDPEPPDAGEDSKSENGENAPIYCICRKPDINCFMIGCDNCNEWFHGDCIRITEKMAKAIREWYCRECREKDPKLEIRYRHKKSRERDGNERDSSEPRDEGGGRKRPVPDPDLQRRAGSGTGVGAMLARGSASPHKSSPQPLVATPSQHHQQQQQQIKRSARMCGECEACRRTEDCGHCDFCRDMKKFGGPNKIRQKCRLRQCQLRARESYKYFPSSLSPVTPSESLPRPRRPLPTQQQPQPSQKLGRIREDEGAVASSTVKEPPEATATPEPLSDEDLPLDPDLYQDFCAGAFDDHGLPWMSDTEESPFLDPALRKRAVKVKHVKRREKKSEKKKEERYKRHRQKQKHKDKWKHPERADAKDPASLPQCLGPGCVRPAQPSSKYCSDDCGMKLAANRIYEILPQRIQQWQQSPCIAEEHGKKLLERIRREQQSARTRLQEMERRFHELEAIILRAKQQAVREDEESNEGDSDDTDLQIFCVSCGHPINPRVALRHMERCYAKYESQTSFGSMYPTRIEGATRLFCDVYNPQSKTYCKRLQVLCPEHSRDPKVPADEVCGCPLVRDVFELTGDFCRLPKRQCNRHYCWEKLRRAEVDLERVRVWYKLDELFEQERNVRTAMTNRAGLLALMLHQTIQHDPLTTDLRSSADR

Experiments:
Test in all cases: log2 fold change, soluble protein after heating vs DMSO (PISA); higher = thermal stabilisation; K562 cells, 10 uM, 30 min; active = over 0.2 and 3.5 SD of the protein, either way, in both replicates (recomputed)
[1] = compound: CC1=C(C=C(C=C1)NC(=O)C2=CC(=CC=C2)N(C)C)NC(=O)C3=CC=C(C=C3)O
How it was run: (§1)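 Aliquots of K562 cells (2×10^6 cells/mL) treated with 10 μM compound for 30 min were heated for 3 min over 48°C-58°C. After pooling and extraction in PBS with 0.5% NP-40 at 4°C, soluble protein from a 21,000xg, 90 min spin was quantified by TMTpro 16plex LC-MS/MS with channel sums equalised. Thermal stability is expressed against control samples, from duplicates, as a log2 fold change.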

vemurafenib = compound: CCCS(=O)(=O)Nc1ccc(F)c(C(=O)c2c[nH]c3ncc(-c4ccc(Cl)cc4)cc23)c1F [vemurafenib]
How it was run: as §1

givinostat = compound: CCN(CC)Cc1ccc2cc(COC(=O)Nc3ccc(C(=O)NO)cc3)ccc2c1 [givinostat]
How it was run: as §1

[2] = compound: CC[C@H](C)N1C=C(C2=C(C=C(C=C21)C3=CN=C(C=C3)N4CCNCC4)C(=O)NCC5=C(C=C(NC5=O)C)C)C
How it was run: as §1

[3] = compound: CCn1c(C(=O)N(C2CC2)C2CC2)cc2c3c(ncn3C)c(Nc3cc(C)n(C)n3)nc21
How it was run: as §1

[4] = compound: CCn1cc(-c2ccnc3[nH]c(-c4cccc(CN(C)C)c4)cc23)c(-c2ccc(NC(=O)N(C)C)cc2)n1
How it was run: as §1

[5] = compound: CN(C)CC(=O)Nc1ccc2[nH]c(=O)c3ccccc3c2c1
How it was run: as §1

[6] = compound: CN1CCC(CNc2ccc3ncc(-c4cccc(OC(F)(F)F)c4)n3n2)CC1
How it was run: as §1

[7] = compound: CC1=NC(=CC=C1)C2=C(N=C(N2)C(C)(C)C)C3=CC4=NC=CN=C4C=C3
How it was run: as §1

Nexturastat A = compound: CCCCN(Cc1ccc(C(=O)NO)cc1)C(=O)Nc1ccccc1 [Nexturastat A]
How it was run: as §1

epoxomicin = compound: CC[C@H](C)[C@@H](C(=O)N[C@@H]([C@@H](C)O)C(=O)N[C@@H](CC(C)C)C(=O)[C@]1(CO1)C)NC(=O)[C@H]([C@@H](C)CC)N(C)C(=O)C [epoxomicin]
How it was run: as §1

[8] = compound: CN1C2=C(C3=C1C(=O)N(N=C3)CC4=CC(=CC=C4)N)SC(=C2)S(=O)C
How it was run: as §1

[9] = compound: CC1=C(C=C(C=C1)NC(=O)C2=CC(=CC=C2)C(C)(C)C#N)NC3=CC4=C(C=C3)N=CN(C4=O)C
How it was run: as §1

[10] = compound: CCCc1cc(C)[nH]c(=O)c1CNC(=O)c1cc(-c2ccnc(N3CCN(C)CC3)c2)cc2c1cnn2C(C)C
How it was run: as §1

[11] = compound: CC[C@@H]1C(=O)N(C)c2cnc(Nc3ccc(C(=O)NC4CCN(C)CC4)cc3OC)nc2N1C1CCCC1
How it was run: as §1

barasertib = compound: CCN(CCCOc1ccc2c(Nc3cc(CC(=O)Nc4cccc(F)c4)[nH]n3)ncnc2c1)CCOP(=O)(O)O [barasertib]
How it was run: as §1

rosiglitazone = compound: CN(CCOC1=CC=C(C=C1)C[C@H]2C(=O)NC(=O)S2)C3=CC=CC=N3 (racemic) [rosiglitazone]
How it was run: as §1

[12] = compound: CC1=CC=C(C=C1)SC2=C3C=C(SC3=CN=C2)C(=O)N
How it was run: as §1

[13] = compound: CCCS(=O)(=O)Nc1ccc(F)c(C(=O)c2c[nH]c3ncc(Cl)cc23)c1F
How it was run: as §1

volasertib = compound: CC[C@@H]1C(=O)N(C)c2cnc(Nc3ccc(C(=O)N[C@H]4CC[C@H](N5CCN(CC6CC6)CC5)CC4)cc3OC)nc2N1C(C)C [volasertib]
How it was run: as §1

Measured: log2 fold change

CTDSP1 (UniProt Q9GZU7)
inactive: [1] -0.174 | vemurafenib 0.003 | givinostat 0.037 | [2] 0.068 | [3] 0.232 | [4] -0.077 | [5] 0.109 | [6] 0.075

CXorf40B (UniProt Q96DE9)
inactive: [1] -0.1 | [7] 0.065 | Nexturastat A 0.047 | epoxomicin 0.007 | [4] -0.022 | [8] -0.137 | [6] -0.03

CTNS isoform 2 (UniProt O60931)
inactive: [9] 0.084 | vemurafenib -0.117 | [10] -0.111 | [11] 0.221 | [5] 0.135

DAAM2 (UniProt Q86T65)
inactive: [1] -0.023 | [7] 0.038 | Nexturastat A -0.138 | givinostat -0.001 | barasertib 0.022 | [2] 0.033 | epoxomicin -0.378 | [3] -0.021 | rosiglitazone 0.056 | [8] -0.018

DAPK2 isoform 2 (UniProt Q9UIK4)
inactive: [9] -0.21 | [7] 0.009 | [10] -0.033

DAD1 (UniProt P61803)
inactive: [9] -0.135 | [12] -0.152 | [7] 0.038 | Nexturastat A 0.06 | vemurafenib -0.037 | [13] 0.048 | [10] 0.025 | givinostat 0.104 | barasertib 0.012 | [11] 0.066 | volasertib -0.08 | [2] -0.026 | epoxomicin 0.044 | [3] -0.028 | [5] 0.093 | rosiglitazone 0.086 | [8] 0.102

2 neighbouring entries out of the list so far, for reference:
DAPK2 isoform 2 (UniProt Q9UIK4)
inactive: [9] -0.21 | [7] 0.009 | [10] -0.033

DAD1 (UniProt P61803)
inactive: [9] -0.135 | [12] -0.152 | [7] 0.038 | Nexturastat A 0.06 | vemurafenib -0.037 | [13] 0.048 | [10] 0.025 | givinostat 0.104 | barasertib 0.012 | [11] 0.066 | volasertib -0.08 | [2] -0.026 | epoxomicin 0.044 | [3] -0.028 | [5] 0.093 | rosiglitazone 0.086 | [8] 0.102

(continued)

CWC22 (UniProt Q9HCG8)
inactive: [12] 0.271 | [7] -0.308 | [13] 0.351 | volasertib -0.277

CXCL14 (UniProt O95715)
inactive: [9] -0.02 | [7] -0.114 | [10] -0.097 | barasertib 0.063 | [2] -0.203 | rosiglitazone -0.159

CTNNBL1 (UniProt Q8WYA6)
active: volasertib -1.24
inactive: [12] 0.185 | vemurafenib -0.02 | [13] -0.166 | barasertib 0.012 | [11] -0.362 | [5] 0.012

CTDP1 (UniProt Q9Y5B0)
inactive: [9] -0.031 | [12] 0.071 | [7] -0.067 | Nexturastat A -0.02 | [13] 0.047 | [10] 0.035 | givinostat 0.149 | volasertib -0.255 | [2] -0.035 | epoxomicin 0 | [3] -0.039 | [8] -0.01

CST4 (UniProt P01036)
inactive: [9] -0.013 | vemurafenib -0.061 | [10] -0.394 | barasertib 0.351 | [2] 0.467 | [5] -0.027 | rosiglitazone -0.113

CTBP1 (UniProt E7ESU7)
inactive: givinostat 0.081 | [3] -0.254

DCAF12 (UniProt Q5T6F0)
inactive: [9] -0.136 | [10] 0.08 | [11] -0.132 | [4] -0.141 | [6] 0.197

DCP1B (UniProt Q8IZD4)
inactive: barasertib -0.049 | rosiglitazone -0.078

CYREN (UniProt Q9BWK5)
inactive: [1] 0.114 | [7] -0.012 | vemurafenib 0.108 | [10] -0.026 | givinostat -0.115 | [11] -0.015 | [2] 0.105 | [3] -0.1 | [4] -0.097 | [5] 0.115 | [6] 0.046

DCUN1D4 isoform 3 (UniProt Q92564)
inactive: [9] -0.058 | [7] 0.066 | Nexturastat A 0.083 | vemurafenib -0.016 | [10] 0.054 | [11] 0.054 | epoxomicin 0.237 | [5] 0.002 | [8] -0.116

DAAM1 (UniProt Q9Y4D1)
inactive: [8] 0.424

CSPG5 (UniProt O95196)
inactive: [9] -0.009 | [12] 0.14 | Nexturastat A -0.361 | [13] -0.133 | givinostat -0.072 | [11] 0.049 | volasertib 0.172 | epoxomicin -0.234 | [3] -0.021

CTDSPL2 (UniProt Q05D32)
inactive: Nexturastat A -0.052 | [2] -0.013 | epoxomicin 0.26 | [4] 0.012 | [8] 0.076 | [6] -0.052

CXXC1 isoform 2 (UniProt Q9P0U4)
inactive: [9] -0.096 | [12] 0.076 | [7] -0.005 | vemurafenib -0.077 | [13] 0.031 | volasertib 0.039 | [4] 0.035 | [5] 0.006 | [8] -0.104 | [6] -0.091
